Our source for the binding values is paper PMC9870083.

Sequences of proteins named here, by UniProt entry; tags and fusion partners are left off.
UniProt Q04206: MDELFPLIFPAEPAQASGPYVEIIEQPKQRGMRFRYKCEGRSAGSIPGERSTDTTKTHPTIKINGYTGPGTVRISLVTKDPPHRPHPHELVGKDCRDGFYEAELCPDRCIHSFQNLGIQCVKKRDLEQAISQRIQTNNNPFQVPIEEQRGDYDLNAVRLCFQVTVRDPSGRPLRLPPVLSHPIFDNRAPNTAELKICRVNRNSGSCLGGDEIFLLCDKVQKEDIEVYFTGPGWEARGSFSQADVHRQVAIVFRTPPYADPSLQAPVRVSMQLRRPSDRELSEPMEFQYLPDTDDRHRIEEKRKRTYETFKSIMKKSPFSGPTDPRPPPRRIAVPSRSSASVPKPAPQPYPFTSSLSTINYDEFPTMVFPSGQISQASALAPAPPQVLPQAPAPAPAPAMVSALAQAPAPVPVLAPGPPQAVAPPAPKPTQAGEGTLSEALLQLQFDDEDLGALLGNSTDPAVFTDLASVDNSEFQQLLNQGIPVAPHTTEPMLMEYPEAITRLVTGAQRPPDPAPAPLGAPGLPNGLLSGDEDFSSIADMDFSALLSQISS

Experiment [1] has as its target T1, Flag-tagged retinoic acid receptor β2 (RARβ2) (UniProt P10826).
T1 sequence: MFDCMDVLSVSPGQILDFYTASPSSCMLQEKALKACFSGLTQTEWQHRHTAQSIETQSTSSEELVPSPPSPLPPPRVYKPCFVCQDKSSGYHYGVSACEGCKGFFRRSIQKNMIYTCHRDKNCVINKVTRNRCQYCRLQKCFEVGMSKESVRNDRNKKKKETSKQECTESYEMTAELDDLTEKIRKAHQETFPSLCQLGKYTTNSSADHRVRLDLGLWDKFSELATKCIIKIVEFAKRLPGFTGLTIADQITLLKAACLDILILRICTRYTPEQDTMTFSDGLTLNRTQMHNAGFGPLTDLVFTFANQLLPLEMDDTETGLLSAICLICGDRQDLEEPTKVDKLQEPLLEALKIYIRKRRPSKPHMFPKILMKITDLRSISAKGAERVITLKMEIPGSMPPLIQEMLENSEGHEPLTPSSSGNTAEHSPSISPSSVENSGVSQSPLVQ
Nature of the experiment: co-IP; cotransfected cells lysed in RIPA buffer; 2 μg Flag antibody for 500 μg total whole-cell lysate for each IP; immunoblot; HEK293T, 48 hours after transfection for Figure 6E. In general terms: Immunoblotting shows a protein as a band on a membrane.

Experiment [2] deals with T2, Flag-tagged retinoic acid receptor β4 (RARβ4) (UniProt P10826).
T2 sequence: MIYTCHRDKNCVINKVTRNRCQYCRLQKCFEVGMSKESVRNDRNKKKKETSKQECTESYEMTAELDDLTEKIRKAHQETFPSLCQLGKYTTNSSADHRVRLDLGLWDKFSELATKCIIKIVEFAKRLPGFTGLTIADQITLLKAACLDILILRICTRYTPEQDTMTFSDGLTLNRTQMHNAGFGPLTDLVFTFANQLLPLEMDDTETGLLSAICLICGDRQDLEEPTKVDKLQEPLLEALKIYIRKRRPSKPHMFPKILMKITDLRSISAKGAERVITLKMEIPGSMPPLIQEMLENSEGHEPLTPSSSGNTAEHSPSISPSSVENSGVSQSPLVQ
The description is as above.

No constants are given. Whether binding was seen depends on the method and setting. Binding seen in cells or lysates may run through a third protein. Some results given as binding are weak or reduced against the parent protein; the word gives no strength. Sequences can lack the tags named with a protein.

Consider “myc-tagged RelA/p65 (from UniProt Q04206 1-551)”, for which the binding entry in experiment [1] and in experiment [2] was “binds” in each case.
